Data taken from US7261876B2 (Bracco International BV, priority 2002, dated 2007).

Assay: general procedure: Fmoc solid-phase peptide synthesis; NovaSyn TGR (Rink amide) resin (0.2 mmol/g); HOBt/DIC; HBTU/HOBt/DIEA
Settings: whole synthesis, scale 0.25 mmol

Work on “Ac-AGPTWEEDDWYYKWLFGTGGGK-NH2 (6–13 lactam)” yielded an isolated mass of 8 mg.
